Some entries share one result that the patent states for a list of compounds.
Test: Stability in rat plasma
Format: in vitro ADME
Conditions: 10 μM, 37° C., after 3 h

SMILES	Percent of compound present in rat plasma
CC[C@H](C)[C@H](NC(=O)[C@H](CC1CCCCC1)NC(=O)c1ccno1)C(=O)NCc1ccccc1OC [Compound 18, 5-isoxazoyl-Cha-Ile-aminomethyl-(2-methoxy)phenyl]	over 80%
CC[C@H](C)[C@H](NC(=O)[C@H](CC1CCCCC1)NC(=O)c1ccno1)C(=O)N1CCC(c2ccccc2)CC1 [Compound 30, 5-isoxazoyl-Cha-Ile-(4-phenyl)piperidine]	over 80%
CC[C@H](C)[C@H](NC(=O)[C@H](CC1CCCCC1)NC(=O)c1cc(N)no1)C(=O)N1CCC2(C=Cc3ccccc32)CC1 [Compound 42, 5-(3-amino-isoxazoyl)-Cha-Ile-spiro[indene-1,4′-piperidine]]	over 80%
CO[C@H](C)[C@H](NC(=O)[C@H](CC1CCCCC1)NC(=O)c1ccno1)C(=O)N1CCC2(C=Cc3ccccc32)CC1 [Compound 44, 5-isoxazoyl-Cha-Thr(Me)-spiro[indene-1,4′-piperidine]]	over 80%
